These results are taken from patent publication US20200164029A1 (ACCELERON PHARMA, published 2020).

Protein sequences, listed by entry. Tags and fused reporters are not part of them. Residues count along the entry.
UniProt P37023, residues 22-118: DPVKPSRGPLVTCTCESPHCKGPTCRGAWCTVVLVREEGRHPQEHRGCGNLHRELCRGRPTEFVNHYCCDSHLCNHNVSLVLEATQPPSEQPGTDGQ

The chains are these.
B2: human BMP-9 (ligand, UniProt Q9UK05 320-429, looked up)
chain: SAGAGSHCQKTSLRVNFEDIGWDSWIIAPKEYEAYECKGGCFFPLADDVTPTKHAIVQTLVHLKFPTKVGKACCVPTKLSPISVLYKDDMGVPTLKYHYEGMSVAECGCR
notes: also called hBMP-9
B3: human BMP-10 (ligand, UniProt O95393 317-424, looked up)
chain: NAKGNYCKRTPLYIDFKEIGWDSWIIAPPGYEAYECRGVCNYPLAEHLTPTKHAIIQALVHLKNSQKASKACCVPTKLEPISILYLDKGVVTYKFKYEGMAVSECGCR
notes: also called hBMP-10

The assay “human BMP-9” addresses B2. As to the kind of experiment: SPR (Biacore), captured construct, ligand at 0.5 nM; ++++ = KD<1 nM. A general note: SPR reads the build-up and loss of mass on a sensor chip optically.
The assay “human BMP-10” addresses B3. Described as above.
The target of assay [1] is ALK1-hFc (human) (UniProt P37023). As to the kind of experiment: SPR, ALK1-hFc captured, 10 nM BMP-9 without hENG(26-586).
For assay [2] the target is unchanged. As to the kind of experiment: SPR, ALK1-hFc captured, 10 nM BMP-10 without hENG(26-586).

Results are given in words; binding and its absence hold for the method and conditions named. Some binding calls cover weakened binding; strength is not graded here.

B1: mENG(27-581)-hFc (R&D Systems, catalog #1320-EN) (Fc fusion, not shown: a dimerising Fc or GST)
chain: ERVGCDLQPVDPTRGEVTFTTSQVSEGCVAQAANAVREVHVLFLDFPGMLSHLELTLQASKQNGTETREVFLVLVSNKNVFVKFQAPEIPLHLAYDSSLVIFQGQPRVNITVLPSLTSRKQILDWAATKGAITSIAALDDPQSIVLQLGQDPKAPFLCLPEAHKDMGATLEWQPRAQTPVQSCRLEGVSGHKEAYILRILPGSEAGPRTVTVMMELSCTSGDAILILHGPPYVSWFIDINHSMQILTTGEYSVKIFPGSKVKGVELPDTPQGLIAEARKLNASIVTSFVELPLVSNVSLRASSCGGVFQTTPAPVVTTPPKDTCSPVLLMSLIQPKCGNQVMTLALNKKHVQTLQCTITGLTFWDSSCQAEDTDDHLVLSSAYSSCGMKVTAHVVSNEVIISFPSGSPPLRKKVQCIDMDSLSFQLGLYLSPHFLQASNTIELGQQAFVQVSVSPLTSEVTVQLDSCHLDLGPEGDMVELIQSRTAKGSCVTLLSPSPEGDPRFSFLLRVYMVPTPTAGTLSCNLALRPSTLSQEVYKTVSMRLNVVSPDLSGKGIEGRMD
In the case of B1, the binding entry with human BMP-9 and with human BMP-10 was “binds” throughout. Consider B2, for which the binding entry in the assay with ALK1-hFc (human) [1] is “binds”. B3: the binding entry in the assay with ALK1-hFc (human) [2] is listed as “binds”.
